At least one read-out could not be matched to a standard name with certainty.
Test system: S. molesta
Experiment: Phytotoxic analysis by pipet application on upper or lower leaf surface
Format: in vivo, Salvinia molesta
Conditions: 10 μL of 1% solution per blade, upper surface; 72 hrs
Method: General Experimental Procedure: 4-Hydroxybenzoic and 3,4-dihydroxybenzoic acids and 14 of their analogs were purchased commercially. Each of 16 compounds were prepared as 5 mL experimental solutions with NANOPURE™ water at 1% concentration. A total of 102 healthy and untreated living type III plants of S. molesta (approximately 10 g in fresh weight each) were cultured and tested in 17 plastic containers (23×23 cm, 2.37 L) with six plants in each container in a greenhouse (30° C. during the day time and 20° C. at night). The first container served as the controls without any treatment, the plants in each of the other 16 containers were treated by one of the 16 testing compounds, respectively. The plants in each container were randomly classified into two groups evenly. For each plant in the first group, 10 μL of 1% experimental solution was applied by pipet on the upper surface of each blade of the six pairs of large floating leaves close to the terminal bud. For each plant in the second group, 10 μL of 1% experimental solution was applied by pipet on the lower surface of each blade of the six pairs of large floating leaves close to the terminal bud. The leaf surfaces were examined for damage and analyzed 72 hrs after the treatments.

SMILES | Inhibition (%) Upper leaf Application
O=C(O)c1ccc(O)c(O)c1 [3,4-dihydroxybenzoic acid] | 86.12%
O=C(O)c1ccccc1 [Benzoic acid] | 88.89%

— patent US11350582B2, “Plant varieties by application of endocides” (Stephen F. Austin State University, priority 2015, dated 2022)
